In assay [1] the target is IGF2BP2 (insulin-like growth factor 2 mRNA-binding protein 2), endogenous (human (endogenous in MDA-MB-231 and Hs 578T)) (UniProt Q9Y6M1). As to the kind of experiment: co-IP; MDA-MB-231 and Hs 578T cells treated with saline or cisplatin for 4 h; IGF2BP2 immunoprecipitated from lysates; blot for HUR and EIF4A1.
The target of assay [2] is T1, His-tagged IGF2BP2-M3 overexpressed in IGF2BP2-knockdown MDA-MB-231 and Hs 578T cells (UniProt Q9Y6M1).
T1 sequence: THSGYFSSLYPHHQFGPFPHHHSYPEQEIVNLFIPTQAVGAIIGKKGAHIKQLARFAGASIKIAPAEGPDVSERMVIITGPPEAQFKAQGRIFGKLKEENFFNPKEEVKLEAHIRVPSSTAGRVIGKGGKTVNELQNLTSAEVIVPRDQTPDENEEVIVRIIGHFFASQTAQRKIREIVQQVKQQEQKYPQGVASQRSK
The assay can be described thus: co-IP; His-tagged IGF2BP2-M3 overexpressed in IGF2BP2-knockdown MDA-MB-231 and Hs 578T cells treated with cisplatin or saline; IP with anti-HIS antibody; blot for USP9X, WWP1 and HIS-tag.

Sequences of proteins named here, by UniProt entry; tags and fusion partners are left off.
UniProt P60842: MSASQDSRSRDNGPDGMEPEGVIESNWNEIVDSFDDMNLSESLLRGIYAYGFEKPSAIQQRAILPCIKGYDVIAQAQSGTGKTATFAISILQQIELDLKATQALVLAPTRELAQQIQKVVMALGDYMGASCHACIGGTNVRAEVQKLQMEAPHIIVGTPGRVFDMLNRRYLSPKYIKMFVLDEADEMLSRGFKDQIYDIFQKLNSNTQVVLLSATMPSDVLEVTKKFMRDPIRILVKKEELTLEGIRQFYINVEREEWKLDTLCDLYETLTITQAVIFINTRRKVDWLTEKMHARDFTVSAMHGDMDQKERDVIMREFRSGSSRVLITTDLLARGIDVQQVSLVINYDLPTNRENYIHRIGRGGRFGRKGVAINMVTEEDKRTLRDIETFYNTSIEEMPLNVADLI
UniProt Q15717: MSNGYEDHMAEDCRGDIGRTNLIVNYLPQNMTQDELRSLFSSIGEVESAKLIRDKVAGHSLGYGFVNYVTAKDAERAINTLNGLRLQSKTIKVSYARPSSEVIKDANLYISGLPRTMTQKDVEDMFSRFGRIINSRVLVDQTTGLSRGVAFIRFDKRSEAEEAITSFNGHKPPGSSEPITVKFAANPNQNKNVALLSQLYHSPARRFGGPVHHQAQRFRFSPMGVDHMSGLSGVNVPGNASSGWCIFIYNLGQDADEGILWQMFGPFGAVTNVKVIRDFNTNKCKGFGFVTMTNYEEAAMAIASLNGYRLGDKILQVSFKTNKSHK

Assay [3] concerns the target IGF2BP2 (insulin-like growth factor 2 mRNA-binding protein 2), endogenous (human (endogenous in MDA-MB-231 and Hs 578T)) (UniProt Q9Y6M1). The assay can be described thus: co-IP; endogenous proteins; MDA-MB-231 and Hs 578T lysates (IP lysis buffer), antibody on protein A/G magnetic beads overnight at 4 °C, Western blot.
The target in assay [4] is T2, HIS-tagged IGF2BP2 truncated mutant M3 (401-599), in HEK 293T (UniProt Q9Y6M1).
T2 sequence: T1 sequence
The assay can be described thus: co-IP; HEK 293T co-transfected with FLAG-USP9X and HIS-tagged full-length or truncated IGF2BP2; IP with HIS beads, blot with anti-FLAG and anti-HIS.

Assay [5] addresses T3, FLAG-tagged USP9X truncated mutant M3 (1201-2000) (UniProt Q93008).
T3 sequence: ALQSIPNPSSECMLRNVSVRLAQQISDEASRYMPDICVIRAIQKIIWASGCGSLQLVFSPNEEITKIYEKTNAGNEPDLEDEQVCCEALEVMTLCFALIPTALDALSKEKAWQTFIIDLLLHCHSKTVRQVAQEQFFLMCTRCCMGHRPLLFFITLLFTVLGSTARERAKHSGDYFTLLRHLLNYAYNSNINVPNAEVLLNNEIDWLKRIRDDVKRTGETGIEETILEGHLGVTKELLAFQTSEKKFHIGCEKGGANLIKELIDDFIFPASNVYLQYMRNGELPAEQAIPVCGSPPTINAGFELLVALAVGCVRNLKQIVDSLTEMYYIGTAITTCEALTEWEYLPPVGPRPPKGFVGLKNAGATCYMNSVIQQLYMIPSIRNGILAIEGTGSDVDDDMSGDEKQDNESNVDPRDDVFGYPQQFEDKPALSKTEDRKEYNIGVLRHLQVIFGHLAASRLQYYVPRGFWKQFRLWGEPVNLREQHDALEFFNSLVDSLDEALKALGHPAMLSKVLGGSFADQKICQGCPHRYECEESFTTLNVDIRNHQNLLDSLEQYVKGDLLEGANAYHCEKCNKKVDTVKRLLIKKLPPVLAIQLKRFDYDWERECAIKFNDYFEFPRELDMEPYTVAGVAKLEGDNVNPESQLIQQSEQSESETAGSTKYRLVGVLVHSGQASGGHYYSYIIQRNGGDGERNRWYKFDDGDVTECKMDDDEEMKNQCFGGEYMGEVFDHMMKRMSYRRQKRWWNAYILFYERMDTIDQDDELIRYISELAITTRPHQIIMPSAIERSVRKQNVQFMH
The assay can be described thus: co-IP; HEK 293T co-transfected with HIS-IGF2BP2 and FLAG-tagged USP9X full-length or truncated mutants; IP with FLAG beads, blot with anti-HIS and anti-FLAG.

In assay [6] the target is FLAG-tagged USP9X full-length (UniProt Q93008). The assay is described as above.
The target of assay [7] is T4, GST-tagged USP9X M3 segment, purified protein (HY-P701431, MCE) (UniProt Q93008).
T4 sequence: T3 sequence
The assay can be described thus: pull-down; purified GST-USP9X-M3 and HIS-IGF2BP2 incubated in binding buffer at 4 °C for 2 h; pulled down with HIS/GST magnetic beads; Western blot; both purified. A general note: In western blotting, separated proteins are transferred to a membrane and probed.

Results are given in words; binding and its absence hold for the method and conditions named. For some assays here: Binding seen in cells or lysates may run through a third protein. Some results given as binding are weak or reduced against the parent protein; the word gives no strength. For some assays here: Tags and fused reporters may be left off the sequences shown.

For “Eukaryotic Initiation Factor 4A1 (EIF4A1), endogenous (from UniProt P60842 1-406)”, in assay [1], the binding result was “binds”.
Regarding “USP9X (ubiquitin specific peptidase 9 X-linked), endogenous (from UniProt Q93008 1-2554) (enzyme)”, the binding result in assay [2] and in assay [3] was “binds” each time.
Consider “FLAG-tagged USP9X full-length (from UniProt Q93008 1-2554) (enzyme)”, for which, in assay [4], the binding result is “binds”.
Consider “Human antigen R (HUR), endogenous (from UniProt Q15717 1-326)”, for which the binding result in assay [1] is “binds”.
As for “HIS-tagged IGF2BP2 full length (from UniProt Q9Y6M1 1-599)”, the binding result in assay [5], in assay [6] and in assay [7] was “binds” each time.
